Data: patent US20180169082A1 (priority 2014, published 2018)
Where a name gives a salt, the structure may show the parent alone.

What was measured:
[1] = Bulk and tap density of granules or powder; format: physicochemical
[2] = Angle of repose / powder flow of granules; format: physicochemical
Text: The angle of repose may be used to characterize the flow properties of solids. Angle of repose is a characteristic related to interparticulate friction or resistance to movement between particles. The angle of repose is the constant, three-dimensional angle (relative to the horizontal base) assumed by a cone-like pile of material formed by any of several different methods. A variety of angle of repose test methods arc described in the literatue. The most common methods for determining the static angle of repose can be classified on the basis of the following two important experimental variables: (1) The height of the “funnel” through which the powder passes may be fixed relative to the base, or the height may be varied as the pile forms and (2) the base upon which the pile forms may be of fixed diameter or the diameter of the powder cone may be allowed to vary as the pile forms.
A slightly larger batch (Batch 1086-140-10) was made and granules were encapsulated in size 4 capsule shells. Weight variation of capsules of this batch was found within acceptable range of ±10%.

## COc1cc2c(cc1OC)C(=O)C(CC1CCN(Cc3ccccc3)CC1)C2 (centres unmarked) [Donepezil Drug Substance, donepezil hydrochloride]
[1]
  Bulk density: 0.14 g/mL
  Compressibility (t-b)/t: 70
  Hausener ratio (Tap/Bulk): 3.29
  Tap density: 0.46 g/mL
[2]
  Angle of repose (requires tapping): >50.2
